Assay results as given in paper PMC3544915.
Results are given in words; binding and its absence hold for the method and conditions named. In cells and extracts the contact can be indirect. Some results given as binding are weak or reduced against the parent protein; the word gives no strength. Sequences can lack the tags named with a protein.

By UniProt entry, the sequences of proteins in these tests, tags left out.
UniProt O59923: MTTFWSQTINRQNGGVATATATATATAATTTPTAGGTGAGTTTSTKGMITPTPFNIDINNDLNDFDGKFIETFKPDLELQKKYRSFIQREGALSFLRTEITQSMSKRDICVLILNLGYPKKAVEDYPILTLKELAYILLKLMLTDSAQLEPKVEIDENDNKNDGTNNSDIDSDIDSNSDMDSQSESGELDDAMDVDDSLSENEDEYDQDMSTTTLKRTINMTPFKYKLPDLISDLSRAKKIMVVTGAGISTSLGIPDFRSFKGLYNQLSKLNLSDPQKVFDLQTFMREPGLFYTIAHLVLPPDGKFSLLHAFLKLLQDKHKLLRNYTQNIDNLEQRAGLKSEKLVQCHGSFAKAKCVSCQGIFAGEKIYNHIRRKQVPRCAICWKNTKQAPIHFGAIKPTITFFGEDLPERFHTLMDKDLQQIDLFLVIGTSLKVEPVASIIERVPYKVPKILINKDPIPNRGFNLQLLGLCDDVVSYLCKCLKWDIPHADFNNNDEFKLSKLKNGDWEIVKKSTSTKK

Molecular target: Sir2 tagged with 3xHA (Candida albicans) (UniProt O59923)
Assay: co-IP; 10 mg crude lysate of Spider-induced BW-pYPB-HX-6HF-SIR-3HA cells incubated with anti-HA agarose 2 hrs at 4°C in NP-40 buffer (50 mM NaH2PO4 pH 8.0, 150 mM NaCl, 1% Nonidet P-40); Hxk1 detected by Western blot with anti-FLAG antibody; duplicates

B1: CaHxk1 tagged with the 6xHis-FLAG epitope sequence, expressed under the ADH1 promoter (enzyme, UniProt Q59RW5 1-493)
chain: MTETSISGLRGPKSMYFMEIVDVSSQESSVLSSIVESFTSAVSASNLGVYSDEVLCDIKSSLKENSPITMLPNYNVSPTGDEHGQYLVIDLGGSTLRIAVVDISKPHPNLSRSERITIVVEKSWIIGNDFKRIDGEFFKYIGSKINEILMGQNVIDVKSVINTGITWSFPLETTDYNRGKIKHVSKGYTVGEDIYDKDLKMVLEDTLRQEYGLTLDVQSILNDSLAVYSAGCFIDSKMKLAMVLGTGINMCCSLKRSSDIHPSKMLADATLFNCELSLFGQNLCKDFATKYDIIIDKRFAGLSHHFKTFMEPDPITKTLFQPHELMTSGRYLPELTRLVVVDLIEAGEIFQNVDHQQMYQEYGGFSGELICFVHENDDYDDIHDKLCKAYGWTTVGLSDIVCLKEVVSCIIKRAAFIVANAIIAFFKLLGSDELGGDVTIGYVGSVLNYFHKYRRLIVEYVNSAEEAKGIKVDLKLIENSSIIGAAIGAAYHK
  binding: binds
